From PMC8904561 come the findings set out here.

By UniProt entry, the sequences of proteins in these tests, tags left out. Where a name states a change or a piece, a line headed by the entry shows the natural chain unless it says otherwise.
UniProt P12830: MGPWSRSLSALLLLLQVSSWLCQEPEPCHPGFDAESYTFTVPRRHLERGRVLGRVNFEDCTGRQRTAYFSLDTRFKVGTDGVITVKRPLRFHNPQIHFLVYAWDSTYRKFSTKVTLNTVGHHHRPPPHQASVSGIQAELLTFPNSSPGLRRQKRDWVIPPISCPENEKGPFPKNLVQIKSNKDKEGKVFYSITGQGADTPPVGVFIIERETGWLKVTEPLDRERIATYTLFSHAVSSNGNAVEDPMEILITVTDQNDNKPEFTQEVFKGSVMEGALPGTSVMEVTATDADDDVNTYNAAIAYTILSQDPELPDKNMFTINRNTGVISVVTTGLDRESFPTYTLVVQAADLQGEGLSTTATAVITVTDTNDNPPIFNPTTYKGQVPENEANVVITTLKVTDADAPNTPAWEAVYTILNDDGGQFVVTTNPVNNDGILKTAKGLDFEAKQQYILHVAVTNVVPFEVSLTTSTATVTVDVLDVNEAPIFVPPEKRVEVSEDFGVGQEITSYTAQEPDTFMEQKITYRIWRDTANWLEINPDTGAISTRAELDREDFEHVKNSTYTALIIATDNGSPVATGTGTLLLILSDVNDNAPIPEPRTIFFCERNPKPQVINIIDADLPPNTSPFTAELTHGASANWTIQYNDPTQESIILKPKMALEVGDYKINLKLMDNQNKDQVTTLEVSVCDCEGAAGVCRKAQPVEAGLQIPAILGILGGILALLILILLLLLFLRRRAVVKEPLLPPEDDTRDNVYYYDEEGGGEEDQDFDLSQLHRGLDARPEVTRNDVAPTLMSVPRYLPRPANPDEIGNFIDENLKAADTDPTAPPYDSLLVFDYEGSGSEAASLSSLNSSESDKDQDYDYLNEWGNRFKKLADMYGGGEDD
UniProt P37802: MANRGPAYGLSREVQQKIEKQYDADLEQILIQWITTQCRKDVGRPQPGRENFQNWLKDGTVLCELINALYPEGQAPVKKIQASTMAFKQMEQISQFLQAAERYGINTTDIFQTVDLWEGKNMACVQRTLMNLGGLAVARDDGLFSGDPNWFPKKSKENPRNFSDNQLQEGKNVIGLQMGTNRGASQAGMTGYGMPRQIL

These are yes or no findings as the source states them, for the method shown. Binding can be weak; no strength is given.

This assay addresses E-cadherin protein (Proteintech) (UniProt P12830). Briefly: MST; E-cadherin at a constant concentration (printed as 1 mM), 2-fold serial dilutions of TAGLN2; RED-NHS labelling; 50 mM Tris-HCl pH 7.4, 150 mM NaCl, 10 mM MgCl2, 0.05% Tween-20; 15 min at room temperature; Monolith NT.115, 60% MST power; both purified.

For “TAGLN2 protein (purified recombinant) (from UniProt P37802 1-199)”, the binding entry was “binds”.
